Like-named read-outs stand apart in the source and are kept apart here. Results are given in words; binding and its absence hold for the method and conditions named. For part of these data: In cells and extracts the contact can be indirect. Some results given as binding are weak or reduced against the parent protein; the word gives no strength. For part of these data: Sequences can lack the tags named with a protein.

Experiment [1] concerns the target T1, Uukuniemi virus nucleocapsid (N) protein, full length, mammalian two-hybrid fusions (pM-UUKV-N and pVP-UUKV-N) (Uukuniemi virus) (UniProt P22025).
T1 sequence: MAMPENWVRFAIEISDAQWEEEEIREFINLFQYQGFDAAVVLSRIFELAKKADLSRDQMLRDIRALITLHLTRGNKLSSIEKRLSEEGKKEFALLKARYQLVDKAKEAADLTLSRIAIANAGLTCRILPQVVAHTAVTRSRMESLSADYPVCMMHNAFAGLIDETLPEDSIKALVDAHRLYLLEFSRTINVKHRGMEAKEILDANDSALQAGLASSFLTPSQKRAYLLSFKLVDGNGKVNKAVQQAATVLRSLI
Put plainly: two-hybrid; mammalian two-hybrid in HeLa cells: GAL4 DNA-BD (pM) and VP16 DNA-AD (pVP) fusions, pG5luc firefly luciferase normalised to Renilla luciferase, 24 h post-transfection; percent of the wt N-N interaction.

Experiment [2] addresses T1, Uukuniemi virus nucleocapsid (N) protein, full length, mammalian two-hybrid fusions (pM-UUKV-N and pVP-UUKV-N) (Uukuniemi virus). Described as above. This is another data set of the same source.
The target of experiment [3] is Uukuniemi virus nucleocapsid (N) protein, full-length wild type (pcDNA-UUKV-N) (Uukuniemi virus) (UniProt P22025). Put plainly: cross-linking; data not shown; BS3 cross-linking of lysates of COS-7 cells transfected with wt or mutant pcDNA-UUKV-N constructs.

For “UUKV-N protein deletion mutant ΔN34, mammalian two-hybrid fusion (from UniProt P22025 35-254) (domain or fragment)”, the binding entry in experiment [1] is “no binding”.

B1: Uukuniemi virus nucleocapsid (N) protein, full length, mammalian two-hybrid fusions (pM-UUKV-N and pVP-UUKV-N) (protein, UniProt P22025 1-254)
chain: MAMPENWVRFAIEISDAQWEEEEIREFINLFQYQGFDAAVVLSRIFELAKKADLSRDQMLRDIRALITLHLTRGNKLSSIEKRLSEEGKKEFALLKARYQLVDKAKEAADLTLSRIAIANAGLTCRILPQVVAHTAVTRSRMESLSADYPVCMMHNAFAGLIDETLPEDSIKALVDAHRLYLLEFSRTINVKHRGMEAKEILDANDSALQAGLASSFLTPSQKRAYLLSFKLVDGNGKVNKAVQQAATVLRSLI
For the molecule B1, in experiment [2], the binding result is recorded as “binds”.

B2: Uukuniemi virus nucleocapsid (N) protein, full-length wild type (pcDNA-UUKV-N) (natural protein)
chain: MAMPENWVRFAIEISDAQWEEEEIREFINLFQYQGFDAAVVLSRIFELAKKADLSRDQMLRDIRALITLHLTRGNKLSSIEKRLSEEGKKEFALLKARYQLVDKAKEAADLTLSRIAIANAGLTCRILPQVVAHTAVTRSRMESLSADYPVCMMHNAFAGLIDETLPEDSIKALVDAHRLYLLEFSRTINVKHRGMEAKEILDANDSALQAGLASSFLTPSQKRAYLLSFKLVDGNGKVNKAVQQAATVLRSLI
notes: Uukuniemi virus nucleocapsid (N) protein, 254 aa residues; No tag is mentioned; detected with a rabbit antiserum against UUKV-N; also called UUKV-N protein; wt N protein; source: COS-7, transfected (pcDNA-UUKV-N), in lysate
For the molecule B2, in experiment [3], the binding entry is recorded as “binds”.

For the origin of these results see PMC2925374, “Oligomerization of Uukuniemi virus nucleocapsid protein” (Virology Journal, 2010).
